Patent US6440732
No constants are given. Whether binding was seen depends on the method and setting. For part of these data: Binding seen in cells or lysates may run through a third protein. Some results given as binding are weak or reduced against the parent protein; the word gives no strength. For part of these data: Tags and fused reporters may be left off the sequences shown.

Amino acid sequences for entries named in this document (tags omitted).
UniProt O96017: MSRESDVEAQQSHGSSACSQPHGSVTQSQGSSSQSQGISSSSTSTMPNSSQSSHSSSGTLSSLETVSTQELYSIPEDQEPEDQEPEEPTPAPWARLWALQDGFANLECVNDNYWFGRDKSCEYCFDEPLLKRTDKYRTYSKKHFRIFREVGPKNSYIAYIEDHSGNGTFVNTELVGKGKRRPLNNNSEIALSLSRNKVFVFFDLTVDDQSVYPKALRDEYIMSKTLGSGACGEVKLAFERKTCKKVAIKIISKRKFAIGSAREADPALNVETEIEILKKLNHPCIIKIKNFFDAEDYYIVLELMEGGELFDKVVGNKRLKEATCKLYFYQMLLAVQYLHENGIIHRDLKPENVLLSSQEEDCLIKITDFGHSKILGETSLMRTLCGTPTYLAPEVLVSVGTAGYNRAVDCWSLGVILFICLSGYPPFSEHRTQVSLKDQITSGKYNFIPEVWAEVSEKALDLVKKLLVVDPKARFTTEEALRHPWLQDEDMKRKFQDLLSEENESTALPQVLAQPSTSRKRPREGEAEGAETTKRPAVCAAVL

What was measured:
S. pombe Cds1 (S. pombe) = target: T1, S. pombe Cds1 (S. pombe) (UniProt Q09170); assay: co-immunoprecipitation in S. pombe
T1 sequence (looked up): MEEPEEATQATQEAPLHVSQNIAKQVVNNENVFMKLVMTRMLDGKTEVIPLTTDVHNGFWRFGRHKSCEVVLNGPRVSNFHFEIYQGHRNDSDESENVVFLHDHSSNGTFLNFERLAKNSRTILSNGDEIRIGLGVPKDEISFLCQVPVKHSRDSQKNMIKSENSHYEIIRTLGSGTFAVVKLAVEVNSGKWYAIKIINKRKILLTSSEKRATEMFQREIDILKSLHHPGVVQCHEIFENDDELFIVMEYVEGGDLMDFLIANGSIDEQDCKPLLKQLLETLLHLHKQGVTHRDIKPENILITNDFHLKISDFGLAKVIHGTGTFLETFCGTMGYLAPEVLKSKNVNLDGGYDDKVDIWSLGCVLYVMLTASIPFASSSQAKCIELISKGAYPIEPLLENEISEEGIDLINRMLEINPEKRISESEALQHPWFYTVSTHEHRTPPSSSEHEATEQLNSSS

[1] = target: T2, S. pombe Cds1 FHA domain (S. pombe) (UniProt Q09170); assay: summary of the yeast two-hybrid result
T2 sequence (looked up): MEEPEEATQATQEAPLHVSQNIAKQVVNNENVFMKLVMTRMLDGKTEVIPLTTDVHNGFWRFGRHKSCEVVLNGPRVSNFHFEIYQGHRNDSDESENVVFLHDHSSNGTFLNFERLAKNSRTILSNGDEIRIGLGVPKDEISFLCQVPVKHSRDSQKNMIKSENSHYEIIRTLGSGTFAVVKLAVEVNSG

[2] = target: T2, S. pombe Cds1 FHA domain (S. pombe); assay: yeast two-hybrid screen, Cds1 FHA domain as bait, S. pombe cDNA library as prey
[3] = target: FLAG-tagged human Cds1 (human Cds1 ORF in pYC1FLAG, downstream of and in frame with the FLAG epitope) (human) (UniProt O96017); assay: co-immunoprecipitation from transfected mammalian cells
[4] = target: FLAG-tagged human Cds1 (human Cds1 ORF in pYC1FLAG, downstream of and in frame with the FLAG epitope) (human) (UniProt O96017); assay: reciprocal co-immunoprecipitation from transfected HEK293 cells, western blot
[5] = target: FLAG-tagged human Cds1 (human Cds1 ORF in pYC1FLAG, downstream of and in frame with the FLAG epitope) (human) (UniProt O96017); assay: co-immunoprecipitation, western blots of lysates and immunoprecipitates (FIG. 8)

Measured: binding

B1: S. pombe Mus81 (translation product of ORF SPCC4G3.05c, 572 amino acid hypothetical protein PID g2213548) (protein)
chain: MKSCPITFHRPSQALALKGIGPTICAKLEKKWNAYCLENNIPISTHNEQNDSHVNANKSSSETSSEKPRSVKKPTTRKRKVYVPSYRSGAYSILCALYMLNKHEFATKPQIVTMAQPYCDSSFGSATDRNMRYTAWSAMKTLITKNLVYQTGHPSKYCLTDDGEEVCIRLAKVDDSFQRKHTVSNFSVSKSDDHDSSLCQPPNFVTSINKAGSSSDHGGELHVTYCPVDHNEVSDGVETDIDVDQVDSLTGIHDHHIINNEQLIDLTEQEKKQPNESNLSNLKIETVLFSNCTVFLLIDTREIRSPLDRNLIIDKLTNDFGVNCQVRSLELGDALWVARDMESGQEVVLDFVVERKRYDDLVASIKDGRFHEQKARLKKSGIRSVTYILEESSYDESFTESIRTAVSNTQVDQLFHVRHTRSLEHSVSLLAEMTKQINLFYEKRKTLAVIPDLSIEAKTYESLREQLLKIDPSTPYHISYHAFSSVLSKSSTLTVGDIFIRMLMTIKGISASKAIEIQKKYPTFMHLFEAYEKSSSSQERNLLLNKTCQGYGFQTIGPALSAKVASVFFPES
binds: S. pombe Cds1 (S. pombe) | [1] | [2]

B2: HA-tagged human Mus81 (Hmus811 ORF in pYC1HA, downstream of and in frame with the HA epitope tag) (protein, not shown: small tags and cut ends)
chain: MAAPVRLGRKRPLPACPNPLFVRWLTEWRDEATRSRHRTRFVFQKALRSLRRYPLPLRSGKEAKILQHFGDGLCRMLDERLQRHRTSGGDHAPDSPSGENSPAPQGRLAEVQDSSMPVPAQPKAGGSGSYWPARHSGARVILLVLYREHLNPNGHHFLTKEELLQRCAQKSPRVAPGSAPPWPALRSLLHRNLVLRTHQPARYSLTPEGLELAQKLAESEGLSLLNVGIGPKEPPGEETAVPGAASAELASEAGVQQQPLELRPGEYRVLLCVDIGETRGGGHRPELLRELQRLHVTHTVRKLHVGDFVWVAQETNPRDPANPGELVLDHIVERKRLDDLCSSIIDGRFREQKFRLKRCGLERRVYLVEEHGSVHNLSLPESTLLQAVTNTQVIDGFFVKRTADIKESAAYLALLTRGLQRLYQGHTLRSRPWGTPGNPESGAMTSPNPLCSLLTFSDFNAGAIKNKAQSVREVFARQLMQVRGVSGEKAAALVDRYSTPASLLAAYDACATPKEQETLLSTIKCGRLQRNLGPALSRTLSQLYCSYGPLT
binds: [3] | [4] | [5]
